Patent publication US20190161553A1
These are yes or no findings as the source states them, for the method shown. Some results given as binding are weak or reduced against the parent protein; the word gives no strength.

Amino acid sequences for entries named in this document (tags omitted). A change or cut given only in a name is not applied to a line headed by its entry.
UniProt Q02223: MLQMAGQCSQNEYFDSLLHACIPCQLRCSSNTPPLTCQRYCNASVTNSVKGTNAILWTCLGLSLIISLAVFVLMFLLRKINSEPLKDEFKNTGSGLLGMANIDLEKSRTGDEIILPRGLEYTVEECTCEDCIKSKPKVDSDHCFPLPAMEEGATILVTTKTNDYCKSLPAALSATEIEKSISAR

B1: BCMA-38 scFv (scFv)
scFv: QVQLVQSGGGLVKPGGSLRLSCAASGFTFSDYYMSWIRQAPGKGLEWVSYISSSGSTIYYADSVKGRFTISRDNAKNSLYLQMNSLRAEDTAVYYCARVDGDYVDDYWGQGTLVTVSSGGGGSGGGGSGGGGSQAVLTQEPSLTVSPGGTVTLTCGSSTGAVTNGHSPYWFQQKPGQAPRTLIYDTNNRHSWTPARFSGSLLGGKAALTLSGAQPEDEADYFCLLSYSDARLAFGGGTKLTVL
B2: BCMA-40 scFv (scFv)
scFv: EVQLVESGGGLVKPGGSLRLSCAASGFTFSDYYMSWIRQAPGKGLEWVSYISSSGSTIYYADSVKGRFTISRDNAKNSLYLQMNSLRAEDTAVYYCAKVDGDYTEDYWGQGTLVTVSSGGGGSGGGGSGGGGSQSALTQPASVSGSPGQSITISCTGSSSDVSKYNLVSWYQQPPGKAPKLIIYDVNKRPSGVSNRFSGSKSGNTATLTISGLQGDDEADYYCCSYGGSRSYVFGTGTKLTVL
B3: BCMA-41 scFv (scFv)
scFv: QVQLVQSGGGLVKPGGSLRLSCAASGFTFSDYYMSWIRQAPGKGLEWVSYISSSGNTIYYADSVKGRFTISRDNAKNSLYLQMNSLRAEDTAVYYCAKVDGDYVDDYWGQGTLVTVSSGGGGSGGGGSGGGGSQPVLTQPPSVSGTPGQRVTIPCSGSSSNIGGNSVDWFQEVPGTAPKLLIYANDRRPSGVPDRFSGTKSGTSASLAIRGLQSDDDAHYYCESWDDALNGHVFGGGTKLTVL
B4: BCMA-42 scFv (scFv)
scFv: EVQLLESGGGLVQPGRSLRLSCTASGFTFGDYAMSWFRQAPGKGLEWVGFIRSKAYGGTTEYAASVKGRFTISRDDSKSIAYLQMNSLKTEDTAVYYCAAWSAPTDYWGQGTLVTVSSGGGGSGGGGSGGGGSDIQMTQSPSLVSASVGDRVTITCRASQGIGNGLAWYQQKPGKAPKLLLFAASRLESGVPSRFSGSRSGTDYTLTISSLQPEDVATYYCQQYVEDALTFGGGTKVDIK
B5: BCMA-44 scFv (scFv)
scFv: EVQLVQSGGGLVQPGRSLRLSCTASGFTFGDYAMSWFRQAPGKGLEWVGFIRSKAYGGTTEYAASVKGRFTISRDDSKSIAYLQMNSLKTEDTAVYYCAAWSAPTDYWGQGTLVTVSSGGGGSGGGGSGGGGSDVVMTQSPDSLAVSLGERATINCKSSQNLLYSSNNKNYLAWYQQKPGQPPKLLIYWASTRESGVPDRFSGSGSGTDFTLTISSLQAEDVAVYYCQQYYSSPYTFGQGTKLEIK
B6: BCMA-45 scFv (scFv)
scFv: QVQLVQSGGGLVQPGRSLRLSCTASGFTFGDYAMSWFRQAPGKGLEWVGFIRSKAYGGTTEYAASVKGRFTISRDDSKSIAYLQMNSLKTEDTAVYYCAAWSAPTDYWGQGTLVTVSSGGGGSGGGGSGGGGSAIRMTQSPSSLSASVGDRVTITCRASQGIGRSLAWYKQKPGGVPQLLIHDASSLRSGVPSRFSGSGSGTEFTLTISGVQSEDSATYHCQQLNGYPWTFGQGTKVDIK
B7: BCMA-46 scFv (scFv)
scFv: QVQLVQSGGGLVQPGRSLRLSCTASGFTFGDYAMSWFRQAPGKGLEWVGFIRSKAYGGTTEYAASVKGRFTISRDDSKSIAYLQMNSLKTEDTAVYYCAAWSAPTDYWGQGTLVTVSSGGGGSGGGGSGGGGSDIVMTQSPDSLVVSLGERATINCKSSQSVLHSSNNKNYLAWYQQKPGQPPKLLIYWASTRESGVPDRFSGSGSGTDFTLTISSLQAEDVAVYYCQQYYTTPLTFGGGTKVEIK
B8: BCMA-51 scFv (scFv)
scFv: EVQLVQSGGGLVQPGRSLRLSCTASGFTFGDYAMSWFRQAPGKGLEWVGFIRSKAYGGTTEYAASVKGRFTISRDDSKSIAYLQMNSLKTEDTAVYYCAAWSAPTDYWGQGTLVTVSSGGGGSGGGGSGGGGSAIQLTQSPSTLSASVGDRVAITCRASQNIGDWLAWYQQKPGKAPKLLIFGASILESGVPSRFSGSGSGTDFTLTISSLQPEDVAVYYCQKYDGAPPWTFGQGTKVEIK

Biological target: human BCMA (B-cell maturation antigen) on the cell surface (human) (UniProt Q02223)
Assay: flow cytometry, BCMA-expressing HEK293 vs control cells

Binder	binding
B1	binds
B2	binds
B3	binds
B4	binds
B5	binds
B6	binds
B7	binds
B8	binds
